According to patent US10632208B2, “Peptide-mediated drug delivery across epithelial barrier” (Purdue Research Foundation, priority 2017, dated 2020):
Some of these results come from one statement about several compounds together. At least one compound was matched to its structure with a doubt left.

Tested on: L. monocytogenes
Experiment: Translocation of L. monocytogenes through polarized Caco-2 monolayers on Transwell filter-inserts
Format: cell-based, Listeria monocytogenes
Details: 30 min pretreatment, BAY 10 μM or PDTC 100 μM, MOI 50
Method: Caco-2 cells were grown as monolayers on Transwell inserts with 3.0 μm pores (Corning-Costar) for up to 14-21 days. TEER was measured to monitor the monolayer integrity (Millicells Voltmeter, Millipore). A TEER value of at least 200 Ω/cm^2 (±10) was used as the basal value to monitor the monolayer integrity. Bacterial cells were washed three times in PBS and resuspended in DMEM-FBS (10%) at a MOI of ˜50 and were added to the apical side of the Transwell system, and after 2 h incubation period at 37° C. in 5% CO2, the liquid was collected from the basal well, and then translocated bacteria were enumerated by plating (Burkholder and Bhunia, 2010). For analysis of FD4 flux, non-metabolizable 4 kDa FITC-labeled dextran (FD4; 5 mg/ml, Sigma-Aldrich) was added with bacteria (MOI, ˜50) resuspended in DMEM-FBS (10%) and added to the apical side. After 2 h incubation at 37° C. in 5% CO2, the liquid was collected from the basal well and fluorescence was measured (Em: 485 nm; Ex: 520 nm; Spectramax, Molecular Devices). For pharmacological inhibition treatments, PDTC (100 μM for 30 min pre-treatment; R&D Systems), Bay-11-7085 (10 μM for 30 min pre-treatment; Sigma-Aldrich), ML-9 (20 μM for 30 min pre-treatment; Sigma-Aldrich), PIK (150 μM, 30 min-pre-treatment and kept during 2-h infection) (Zolotarevsky et al., 2002), and Cytochalasin D (1 μg/mL for 1 h; Sigma-Aldrich) were used separately. […]

Structure (SMILES) | reduction of translocation of WT and ΔinlA strains
CC(C)(C)c1ccc(S(=O)(=O)/C=C/C#N)cc1 [BAY, BAY 11-7085] | 80-90%
S=C(S)N1CCCC1 [PDTC, pyrrolidine dithiocarbamate] | 80-90%
